# Whole data set: some 33,000 sequences, median “E-score (-0.5 to 0.5)” near -0.0034, cut for the highest 2% near 0.25. The list shows a part of the results.
# Molecular target: T1, Yap3 (UniProt P38749)
# T1 sequence: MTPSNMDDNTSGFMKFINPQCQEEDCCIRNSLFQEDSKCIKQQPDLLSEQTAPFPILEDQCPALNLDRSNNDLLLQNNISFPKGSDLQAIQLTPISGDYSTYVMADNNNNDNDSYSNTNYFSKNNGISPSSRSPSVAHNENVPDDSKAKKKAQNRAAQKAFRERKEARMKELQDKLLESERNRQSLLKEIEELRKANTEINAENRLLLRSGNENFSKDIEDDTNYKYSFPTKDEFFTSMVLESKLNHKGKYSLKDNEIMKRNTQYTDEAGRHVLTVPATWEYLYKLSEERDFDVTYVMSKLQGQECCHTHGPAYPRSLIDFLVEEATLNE
# Test: PBM E-score (8-mer binding enrichment) (E-score (-0.5 to 0.5)); higher = stronger / more preferred TF binding
# Settings: protein concentration: 100 nM; construct: GST-full length
# Outline: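 Yeast transcription factors carrying a GST tag, as full-length proteins or DNA-binding domains, were produced by PURExpress in vitro transcription/translation. About 100-200 nM protein was applied to universal all-10-mer Agilent arrays, double-stranded by primer extension on fresh or once-stripped slides. Bound protein was detected with fluorescent anti-GST, and scans were normalised with masliner. The Universal PBM Analysis Suite gave each ungapped eight-base word, pooled with its reverse complement, an E-score, a modified Wilcoxon-Mann-Whitney statistic.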
row,Sequence,PBM E-score
1,CTATTAAG,-0.13
2,AAGCATCC,-0.107
3,CGGGCTCA,-0.315
4,AGCCGCCA,-0.336
5,TCACGGAA,0.0806
6,GCCTAACA,-0.00335
7,CAATGCAA,0.11
8,GTACCTTA,0.14
9,AACCACAC,0.144
10,TATCAATA,0.203
11,AGTAAAAT,0.164
12,ATTGGAAA,0.0591
13,CGGAGACC,-0.142
14,CTGACAGA,0.18
15,GCACCACC,-0.24
16,CCTACAAA,-0.115
17,GGGCCTAC,-0.275
18,CACTGGCG,-0.0144
19,ATGTCCCG,-0.0663
20,CAATACAC,0.0844
21,ACTGTGCT,0.0355
22,AGACCCGG,-0.107
23,CGGTGAGA,0.0997
24,ACCCGAGA,-0.0794
25,AGGCGATA,0.0101

row,Sequence,PBM E-score
1,GTGTTACA,0.0421
2,GACGACAA,0.234
3,AAACGCTA,-0.113
4,CGTCAGAG,-0.0626
5,GCCGTAGC,-0.0287
6,AAGTAAAA,0.0975
7,TACCTATA,-0.123
8,TCCGGACA,-0.0627
9,AATCCAAG,0.147
10,ACCTCTAT,0.0106
11,GTTTAATA,0.272
12,AAGCCGAA,0.0615
13,ACTGACTA,0.0871
14,AAAACCTA,0.177
15,CCGTACCC,-0.174
16,CGCCGCCA,-0.177
17,GTGCTCCA,-0.0911
18,ACAAAAGC,0.175
19,AGGGAGAT,-0.122
20,AAGTGAAC,0.128
21,CAAATGTG,0.195
22,AACGCTGC,-0.131
23,ATGATACC,0.0925
24,ACTCGGCA,0.0944
25,GCCACTAA,-0.0425

# Part of the list above, with bars between the fields:
row | Sequence | PBM E-score
24 | ACTCGGCA | 0.0944
25 | GCCACTAA | -0.0425

# Reformatted as tab-separated lines: entries from further up
row	Sequence	PBM E-score
11	GTTTAATA	0.272
12	AAGCCGAA	0.0615
13	ACTGACTA	0.0871

# Continued.

row,Sequence,PBM E-score
1,GCTCGTAA,0.108
2,AAGTGTCA,-0.0281
3,GCACACAA,0.0813
4,TAATTCAA,0.168
5,GACTCGAA,-0.124
6,ACGTAAGA,0.23
7,CGCCTGGA,-0.0966
8,GAGCTCTA,0.116
9,CTTGAGCC,-0.202
10,AATCAACA,0.304
11,ATCGGGCC,-0.185
12,GCGAGTCC,-0.104
13,CTGTCGCC,-0.072
14,GTCACACA,0.00412
15,ACTACTAT,0.255
16,ATAGGCAT,-0.0193
17,CTGTCAAA,0.0237
18,CGTGGATC,0.119
19,GATGGCGC,-0.0517
20,GCCTTCGA,-0.102
21,CGAGACCG,-0.146
22,GGCAATAC,0.191
23,TATCTCAA,0.256
24,AACCGATA,0.107
25,AACTCCTG,-0.0928

row,Sequence,PBM E-score
1,GATTTGCA,0.0902
2,ACCATGGC,0.0735
3,AAAAGATA,0.116
4,CCATCCCG,-0.129
5,CTTATCCA,0.196
6,TCTAGACA,0.00665
7,CTGAAAGA,0.0906
8,CCGTGCGA,-0.0146
9,ATCAACAC,0.189
10,CTTCATAC,0.172
11,ACATCTAG,-0.0228
12,AGTGGAAA,0.0997
13,AAGCAGAC,-0.0626
14,CACACATG,0.0213
15,GAGAGCGA,-0.166
16,CCTTTGCC,-0.192
17,AATTCGTA,0.206
18,GTGCTTTA,0.121
19,CGTTGCAG,-0.0459
20,CCTAATAG,0.0117
21,ACATTAGA,0.0407
22,GGTGTGAA,0.161
23,ACACCGTG,-0.0715
24,AATGGCGA,0.0965
25,CCGGTTGC,0.0472

# Quoted from the listing.
# CCATCCCG | PBM E-score: -0.129
# CCTAATAG | PBM E-score: 0.0117

# (further entries)

row,Sequence,PBM E-score
1,GCGAAAAA,0.197
2,AGACGGCC,-0.302
3,CAAATTGG,0.221
4,AAATGGGA,0.0386
5,AGGGGTTA,-0.154
6,GCCTTCAC,-0.0188
7,TCGATAAA,0.0941
8,CACTTTGG,-0.0459
9,CATCTAAG,-0.0377
10,AGACCTAC,-0.246
11,CCAACCCG,-0.192
12,GGCTTGAA,0.0362
13,CCACTGCA,-0.0133
14,CAAGATGG,-0.0492
15,CCTAGCTC,-0.211
16,TAATCGAA,0.246
17,AGACCCTG,-0.124
18,AACATGCA,0.0696
19,GGTTTTAA,0.136
20,CGCCCCCC,-0.435
21,GGGGAGAA,-0.118
22,CGCAGGTA,-0.116
23,AGCCGGAC,0.00041
24,CGTTACTC,-0.0213
25,CCGGTTAA,-0.148

row,Sequence,PBM E-score
1,CCAAACGG,-0.184
2,ACCTTATA,0.175
3,ACCTAGAA,-0.121
4,TATCATGA,0.0822
5,GACCCGAC,-0.162
6,ATTTATAC,0.302
7,AATTGGCC,-0.0586
8,GCCTTCCA,-0.0463
9,CAGAATCG,0.00291
10,ACCTCCTA,-0.246
11,ATATAGAG,0.082
12,GACGGCAC,-0.212
13,AGTTGGAT,0.0213
14,CGACATAC,0.166
15,AGTTACAC,0.0567
16,GCAGGATA,-0.053
17,AACCAGAG,0.0335
18,CAAGTGTC,-0.108
19,GCACGACC,-0.0556
20,CCAATGTA,-0.0747
21,GTAAAGTA,0.251
22,GAACAGAA,0.164
23,CCTTAAGA,-0.105
24,ATTCCCTC,-0.11
25,AAGCGGGT,-0.168

row,Sequence,PBM E-score
1,CACGTAGG,-0.215
2,CCCGGGCG,-0.12
3,ACGTACTG,-0.0267
4,ACCGTGCC,-0.0308
5,CTTATTAC,0.251
6,CGGAATTC,0.044
7,ACGTATCG,-0.0162
8,AGCGAGAA,-0.0207
9,CGCAGTGC,-0.192
10,TCAACAGA,-0.0407
11,CAGAAGCA,0.137
12,ATACTAAC,0.227
13,ACGGCTCA,0.0619
14,ACGTGCTC,-0.0391
15,CTCGGCCA,-0.0295
16,CTACCCAC,-0.154
17,ATACAGCG,0.0763
18,CTTATAAC,0.165
19,ACGAGTAA,0.171
20,GCTCAGTA,-0.0762
21,AAAGTTTG,0.205
22,CTGCGAGA,-0.255

# — the supplement of paper PMC3334620
